Read-outs that look alike come from different tables or passages of the source. The structures given here were assigned with low confidence; some may be wrong.
Legend:
KMT9 [1] = biological target: T1, KMT9 (Homo sapiens, UniProt Q9Y5N5); experiment: Microscale thermophoresis (MST) KMT9 binding
Experimental: To determine the binding affinity of the compounds according to the present invention and KMT9, microscale thermophoresis (MST) analysis was performed with a NanoTemper Monolith NT.115 instrument (NanoTemper Technologies GmbH). KMT9 was labelled with a RED-Tris-NTA labelling kit (NanoTemper Technologies GmbH) based on the manufacturer's instructions. Buffer including 25 mM HEPES (pH 7.5), 100 mM NaCl, 1 mM DTT and 0.05% Tween was used for the reaction buffer. Varying concentrations of the tested compounds of formula (I) as indicated in Table 1 were titrated against His-tag labelled KMT9 proteins (20 nM). Samples were loaded into standard Capillaries (NanoTemper Technologies GmbH) and MST measurements were performed using 40% MST power and 100% LED power. For each set of binding experiments, MST measurement was carried out with Binding Affinity module in MO.Control program under Nano-RED Excitation. Datasets were processed with the MO.Affinity Analysis software (NanoTemper Technologies GmbH).
For the results of the microscale thermophoresis (MST) assay shown as “MST” in Table 1, “A” represents a Kd of equal to or less than 10 nM (Kd≤10 nM); “B” represents a Kd of greater than 10 nM and equal to or less than 100 nM (10 nM<Kd<100 nM); “C” represents a Kd of greater than 100 nM and equal to or less than 1000 nM (100 nM<Kd ≤ 1000 nM); “D” represents a Kd of greater than 1000 nM (1000 nM<Kd).

Chains of the proteins cited; added tags and fusions are not shown. Residues count along the entry.
UniProt Q9Y5N5, whole entry: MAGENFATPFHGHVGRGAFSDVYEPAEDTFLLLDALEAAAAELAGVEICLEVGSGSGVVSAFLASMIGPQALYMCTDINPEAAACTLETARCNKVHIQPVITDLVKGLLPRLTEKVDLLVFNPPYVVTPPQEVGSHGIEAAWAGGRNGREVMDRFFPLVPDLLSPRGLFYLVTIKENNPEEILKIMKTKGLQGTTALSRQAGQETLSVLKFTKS
UniProt Q9UI30, 1-120 isoform 2 partner: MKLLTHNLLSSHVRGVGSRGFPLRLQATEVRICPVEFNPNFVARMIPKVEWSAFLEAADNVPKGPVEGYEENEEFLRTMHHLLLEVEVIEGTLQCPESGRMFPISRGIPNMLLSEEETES

KMT9 [2] = biological target: T1, KMT9; experiment: KMT9 thermal shift assay (SyproOrange)
Experimental: The assay was carried out in 96-well Hard-Shell PCR plates (Bio-Rad Laboratories Inc.). Assay buffer consisted of 50 mM BTP, 1 mM MgCl2 and 1 mM DTT at a pH of 8.5 (adjusted using 1 M HCl and 1 M NaOH). 20X inhibitor stock (in DMSO), 2X enzyme stock and 4X SyproOrange (SO) stock (both in assay buffer) were prepared. 1 μL of 20X compound, 4 μL of assay buffer, 10 μL of 2X KMT9 and 5 μL of 4X SO were pipetted. For the no-compound control, 20X inhibitor stock was replaced by DMSO. The final volume was 20 μL. The plate was spun down at 700 rpm for 1 min using a Hettich UNIVERSAL 320 centrifuge and incubated at 25° C., shaking at 600 rpm. After incubation, the plate was spun down for 1 min at 700 rpm and measurement was conducted using a CFX96 Touch Real-Time PCR Detection System (Bio-Rad Laboratories Inc.). The plate was equilibrated at 20° C. for 4 min and then heated stepwise at a rate of 1° C. per 15 s until 95° C. After every step, fluorescence was measured in FRET mode. Calculation of melting points was conducted by a Boltzman sigmoidal model using GraphPad Prism 7.0.
For the results of the thermal shift assay shown as “Thermal shift” in Table 1, “++++” represents a ΔTm of greater 20 K, “+++” represents a ΔTm of greater than 15 K and less than or equal to 20 K (15 K<ΔTm≤20 K); “++” represents a ΔTm of greater than 10 K and less than or equal to 15 K (10 K<ΔTm ≤ 15 K); “+” represents a ΔTm of equal to or less than 10 K (ΔTm≤10 K).

KMT9 [3] = biological target: T1, KMT9; experiment: KMT9 methyltransferase inhibition assay, 3H-SAM scintillation (entries 1-154); conditions: read-out: Inhibition; entries 1-154: 3H-SAM assay, 25 nM KMT9, 5 μM ETF1; tested form: TFA salt
Experimental: The assay was carried out in 0.5 mL Eppendorf tubes in duplicates. Assay buffer consisted of 50 mM BTP, 1 mM MgCl2, 1 mM DTT and 0.01% Triton-X^100 at a pH of 8.5 (adjusted using 1 M HCl and 1 M NaOH). 20X inhibitor stock (in DMSO), 2X enzyme stock and 4X substrate mix (both in assay buffer) were prepared. The substrate mix consisted of Tritium-labelled S-adenosylmethionine (3H-SAM), S-adenosylmethionine (SAM) and eukaryotic peptide chain release factor subunit1 (Homo sapiens, residues 140-275)(ETF1). Final assay concentrations were set to 25 nM KMT9, 0.3 μM 3H-SAM, 0.7 µM SAM and 5 μM ETF1. […] 5 μL of 4x substrate mix was added to initiate the reaction. The final reaction volume was 20 μL. For the positive control, the compound of formula (I) was replaced by DMSO; for the negative control, the compound of formula (I) was replaced by DMSO and KMT9 was replaced by assay buffer. The reaction mix was incubated in an Eppendorf thermomixer comfort at 30° C. for 2 h, shaking at 300 rpm. The reaction was quenched using 5 μL 50% trichloroacetic acid (TCA) and incubated at 25° C. for 5 minutes. […] The scintillation signal was measured for 3x 1 min using TriCarb 2910 TR (Perkin Elmer) scintillation counter in 3H CPM mode (LL: 0, UL: 18.6). Inhibition was calculated using the following formula: […]

KMT9 [4] = biological target: T1, KMT9; experiment: KMT9 methyltransferase inhibition assay, MTaseGlo luminescence (from entry 155); conditions: 100 nM KMT9, 5 μM ETF1, 1 μM SAM
Experimental: For the compounds from entry 155 on in Table 1, the following procedure was used to determine IC50 values: The assay was carried out in white, opaque 384-well OptiPlates (PerkinElmer). For IC50 determination, a 2.5x substrate mix (final assay concentrations: 5 μM ETF1, 1 μM SAM and 1x MTaseGlo Reagent), a 2.5x KMT9 solution (final assay concentration 100 nM) and a 5x inhibitor stock 1:1 dilution series (concentration according to the desired range; dilution series was prepared in assay buffer containing 10% DMSO to obtain a final DMSO concentration of 2% in the assay) were prepared. 2 μL of 5x inhibitor stock and 4 μL of 2.5x KMT9 were pipetted, the plate was spun down at 700 rpm for 1 min using a Hettich UNIVERSAL 320 centrifuge and incubated at room temperature (around 25° C.) for 15 min. The reaction was initiated by adding 4 μL of 2.5x substrate mix, the plate was spun down as described before and incubated at 30° C. for 2 h. Afterwards, 10 μL of 2× MTaseGlo Detection solution was added, the plate was centrifuged as described above and incubated for 60 min at room temperature. Luminescence was measured using a PerkinElmer EnVision 2102 Multilabel Reader. Calculation of inhibition and data fitting was carried out as for entries 1-154. described above.
For the results of the methyltransferase inhibition assay shown as “Inhibition” in Table 1, “I” represents an IC50 less than 0.1 μM, “II” represents an IC50 equal or higher than 0.1 μM and less than 1 μM, “III” represents an IC50 equal or higher than 1 µM and less than 10 µM and “IV” represents an IC50 equal or higher than 10 µM

PC3M cells = experiment: Inhibition of cell viability, MTT assay, PC3M; conditions: for in vivo (MTT, PC3M Cells), cell viability effect: 7 days
Experimental: Inhibition of cell viability (“in vivo (MTT, PC3M cells)”)
MTT assays were performed with the CellTiter 96 Non-Radioactive Cell Proliferation Assay (MTT) kit (G4000, Promega) according to the manufacturer's instructions. Briefly, 100 μl of cell culture medium containing inhibitor were dispensed per well into 96-well tissue culture dishes and allowed to equilibrate for 30 min at room temperature. 100 μl of cell suspension were added per well (resulting in 300 cells per well). Cells were allowed to adhere for 30 min at room temperature and then incubated at 37° C. (5% CO2) in a CellXpert incubator (Eppendorf). After 4 days, the medium was replaced with 100 μl of fresh cell culture medium containing inhibitor followed by incubation for additional 3 days. At the end of the culture period, 15 μl of Dye Solution per well were added, the plate incubated for 4 hours at 37° C. followed by addition of 100 μl of Solubilization Solution/Stop Mix per well and incubation for 1 hour at 37° C. Finally, the content of the 96-well dish was homogenized by pipetting up and down and assayed at 570 nm and 650 nm using a NanoQuant Infinite M200 Pro plate reader (TECAN). Absorption at 650 nm (background) was substracted from absorption at 570 nm and the resulting values were normalized to those of the DMSO control.
For the results of the cell viability assay shown as “in vivo (MTT, PC3M Cells)” in Table 1 “###” represents an effect at less than or equal to 1 μM; “##” represents an effect at greater than 1 μM and less than or equal to 3 μM; “#” represents an effect at greater than 3 μM.

Cal29 cells = experiment: Inhibition of cell proliferation, X-Celligence RTCA, Cal29; conditions: for in vivo (Cal29 Cells), anti-proliferation effect: 5000 cells/well
Experimental: Cell proliferation was determined using X-Celligence RTCA system (Roche). For real-time recording of HT-1376, resp. Cal29 cell proliferation, 5000 cells/well were seeded in 16 well E-plates (Roche). Cells were seeded in the presence of DMSO or the tested compound of formula (I) as indicated in Table 124 h before seeding in E-plates. Cell indices were automatically recorded every 15 minutes. Relative velocities represent the change of the cell index over time.
For the results of the HT-1376, resp. Cal29 cell proliferation assay shown as “in vivo (HT-1376 Cells)” and “in vivo (Cal29 Cells)” in Table 1, “***” represents an anti-proliferation effect at less than or equal to 10 μM; “**” represents an anti-proliferation effect at greater than 10 µM and less than or equal to 30 μM; “*” represents an anti-proliferation effect at greater than 30 µM and less than or equal to 100 μM.

[5] = read-out: MST, microscale thermophoresis, His-tag labelled KMT9 (20 nM), tested form: TFA salt
[6] = ΔTm, 500 µM compound, 2 μM KMT9, 5X SO, tested form: TFA salt
[7] = read-out: MST (Kd), His-tag labelled KMT9 20 nM
[8] = read-out: Inhibition (IC50), MTaseGlo procedure (entries from 155)

## CNc1ncnc2c1ccn2[C@@H]1C[C@H](CNCCCNCCc2cccc(CCc3ccccc3)c2)[C@@H](O)[C@H]1O
KMT9 [1]; [5]
  Kd: > 1000 nM
KMT9 [2]; [6]
  Thermal shift: ++ (a ΔTm of greater than 10 K and less than or equal to 15 K (10 K<ΔTm ≤ 15 K))
KMT9 [3]
  IC50: > 10000 nM

## Nc1nc(Cl)nc2c1c(-c1ccn(Cc3ccccc3)n1)cn2[C@@H]1C[C@H](C2CCN(CC3CCCC3)CC2)[C@@H](O)[C@H]1O
KMT9 [1]; [7]
  Kd: < 10 nM
KMT9 [4]; [8]
  IC50: 100 to 1000 nM
KMT9 [2]; 500 µM compound, 2 μM KMT9
  Thermal shift (ΔTm): ++++ (a ΔTm of greater 20 K)
PC3M cells
  in vivo (MTT, PC3M Cells), cell viability effect: ## (an effect at greater than 1 μM and less than or equal to 3 μM)

## CCNC(=O)NCCCNC(=O)[C@H]1O[C@@H](n2cnc3c(N)ncnc32)[C@H](O)[C@@H]1O [307 (206), (2S,3S,4R,5R)-5-(6-amino-9H-purin-9-yl)-N-(3-(3-ethylureido)propyl)-3,4-dihydroxytetrahydrofuran-2-carboxamide]
KMT9 [1]; [5]
  Kd: > 1000 nM
KMT9 [2]; [6]
  Thermal shift: + (a ΔTm of equal to or less than 10 K (ΔTm≤10 K))
KMT9 [3]
  IC50: > 10000 nM

## O=S(=O)(c1ccccc1)n1ccc(-c2cn([C@@H]3C[C@H](CNCCCNCCc4ccccc4)[C@@H](O)[C@H]3O)c3nc(Cl)ncc23)n1
KMT9 [1]; read-out: MST, His-tag labelled KMT9 20 nM, Kd class
  Kd: < 10 nM
KMT9 [4]; read-out: Inhibition, IC50 class, MTaseGlo procedure (entries from 155 on)
  IC50: 100 to 1000 nM
KMT9 [2]; ΔTm class, 500 uM compound, 2 μM KMT9
  Thermal shift: +++ (a ΔTm of greater than 15 K and less than or equal to 20 K (15 K<ΔTm≤20 K))
Cal29 cells; anti-proliferation effect concentration class
  In vivo (Cal29 Cells): *** (an anti-proliferation effect at less than or equal to 10 μM)
PC3M cells; MTT viability effect concentration class
  In vivo (MTT, PC3M Cells): ## (an effect at greater than 1 μM and less than or equal to 3 μM)

## Nc1nc(Cl)nc2c1c(-c1nccs1)cn2[C@@H]1C[C@H](C2CCN(Cc3ccccc3)CC2)[C@@H](O)[C@H]1O
KMT9 [1]; [7]
  Kd: < 10 nM
KMT9 [4]; [8]
  IC50: 100 to 1000 nM
KMT9 [2]; 500 µM compound, 2 μM KMT9
  Thermal shift (ΔTm): ++++ (a ΔTm of greater 20 K)
Cal29 cells
  in vivo (Cal29 Cells), anti-proliferation effect: ** (an anti-proliferation effect at greater than 10 UM and less than or equal to 30 μM)
PC3M cells
  in vivo (MTT, PC3M Cells), cell viability effect: ## (an effect at greater than 1 μM and less than or equal to 3 μM)

## Nc1nc(Cl)nc2c1c(-c1nccs1)cn2[C@@H]1C[C@H](C2CCN(CCc3ccccc3)CC2)[C@@H](O)[C@H]1O
KMT9 [1]; [7]
  Kd: < 10 nM
KMT9 [4]; [8]
  IC50: 100 to 1000 nM
KMT9 [2]; 500 µM compound, 2 μM KMT9
  Thermal shift (ΔTm): +++ (a ΔTm of greater than 15 K and less than or equal to 20 K (15 K<ΔTm≤20 K))
Cal29 cells
  in vivo (Cal29 Cells), anti-proliferation effect: ** (an anti-proliferation effect at greater than 10 UM and less than or equal to 30 μM)

## Nc1ncnc2c1ccn2[C@@H]1C[C@H](C2CCNCC2)[C@@H](O)[C@H]1O
KMT9 [1]; read-out: MST, His-tag labelled KMT9 20 nM, Kd class, tested form: TFA
  Kd: 100 to 1000 nM
KMT9 [4]; read-out: Inhibition, IC50 class, MTaseGlo procedure (entries from 155 on), tested form: TFA
  IC50: 1000 to 10000 nM
KMT9 [2]; ΔTm class, 500 uM compound, 2 μM KMT9, tested form: TFA
  Thermal shift: ++ (a ΔTm of greater than 10 K and less than or equal to 15 K (10 K<ΔTm ≤ 15 K))
